Measured values taken from the supplement of paper PMC10849652.
The other results are listed elsewhere or left out.

By UniProt entry, the sequences of proteins in these tests, tags left out. Where a name states a change or a piece, a line headed by the entry shows the natural chain unless it says otherwise.
UniProt Q9NZI8, whole entry, looked up: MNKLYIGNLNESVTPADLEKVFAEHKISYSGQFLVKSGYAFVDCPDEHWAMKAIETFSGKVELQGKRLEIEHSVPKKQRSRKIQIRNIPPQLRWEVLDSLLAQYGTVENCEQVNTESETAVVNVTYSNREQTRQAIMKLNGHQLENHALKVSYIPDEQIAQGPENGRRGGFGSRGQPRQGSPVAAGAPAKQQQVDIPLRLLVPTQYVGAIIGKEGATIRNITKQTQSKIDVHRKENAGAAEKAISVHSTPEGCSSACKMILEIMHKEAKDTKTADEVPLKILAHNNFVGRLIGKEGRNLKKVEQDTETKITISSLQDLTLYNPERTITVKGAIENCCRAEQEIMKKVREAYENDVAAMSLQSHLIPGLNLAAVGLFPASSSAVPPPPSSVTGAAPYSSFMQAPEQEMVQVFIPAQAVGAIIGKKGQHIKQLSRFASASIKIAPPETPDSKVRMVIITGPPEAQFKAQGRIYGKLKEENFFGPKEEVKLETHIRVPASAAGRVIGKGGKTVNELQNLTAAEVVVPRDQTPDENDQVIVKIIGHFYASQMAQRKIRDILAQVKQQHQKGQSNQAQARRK
UniProt Q5T440: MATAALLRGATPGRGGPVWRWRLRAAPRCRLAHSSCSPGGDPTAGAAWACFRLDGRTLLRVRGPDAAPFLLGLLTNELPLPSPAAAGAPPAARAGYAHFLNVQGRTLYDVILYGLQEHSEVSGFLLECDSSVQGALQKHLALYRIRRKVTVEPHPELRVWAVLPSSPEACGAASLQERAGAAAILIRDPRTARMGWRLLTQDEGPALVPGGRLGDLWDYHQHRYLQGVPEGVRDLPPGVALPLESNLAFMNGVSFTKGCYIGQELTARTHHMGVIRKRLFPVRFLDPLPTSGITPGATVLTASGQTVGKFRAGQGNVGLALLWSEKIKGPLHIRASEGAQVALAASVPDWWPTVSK
UniProt Q9NVM9, whole entry, looked up: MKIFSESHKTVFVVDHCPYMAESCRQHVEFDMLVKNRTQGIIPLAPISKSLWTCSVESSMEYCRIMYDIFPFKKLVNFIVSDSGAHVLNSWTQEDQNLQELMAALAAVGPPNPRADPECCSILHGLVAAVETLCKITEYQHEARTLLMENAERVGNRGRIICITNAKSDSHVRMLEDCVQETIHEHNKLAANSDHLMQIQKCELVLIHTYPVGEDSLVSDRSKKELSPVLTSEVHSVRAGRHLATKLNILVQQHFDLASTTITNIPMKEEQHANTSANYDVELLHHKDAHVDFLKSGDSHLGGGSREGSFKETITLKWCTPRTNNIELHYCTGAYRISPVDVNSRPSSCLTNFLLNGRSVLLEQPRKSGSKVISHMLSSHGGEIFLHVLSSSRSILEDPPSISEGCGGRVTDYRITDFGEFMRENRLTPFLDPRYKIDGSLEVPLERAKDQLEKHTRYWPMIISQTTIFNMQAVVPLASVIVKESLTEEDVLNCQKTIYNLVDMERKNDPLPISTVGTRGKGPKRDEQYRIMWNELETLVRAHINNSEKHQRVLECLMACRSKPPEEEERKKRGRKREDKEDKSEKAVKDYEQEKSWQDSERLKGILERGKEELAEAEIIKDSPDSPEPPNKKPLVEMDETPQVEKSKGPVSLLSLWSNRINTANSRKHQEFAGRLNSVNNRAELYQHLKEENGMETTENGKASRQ
UniProt Q12906, whole entry, looked up: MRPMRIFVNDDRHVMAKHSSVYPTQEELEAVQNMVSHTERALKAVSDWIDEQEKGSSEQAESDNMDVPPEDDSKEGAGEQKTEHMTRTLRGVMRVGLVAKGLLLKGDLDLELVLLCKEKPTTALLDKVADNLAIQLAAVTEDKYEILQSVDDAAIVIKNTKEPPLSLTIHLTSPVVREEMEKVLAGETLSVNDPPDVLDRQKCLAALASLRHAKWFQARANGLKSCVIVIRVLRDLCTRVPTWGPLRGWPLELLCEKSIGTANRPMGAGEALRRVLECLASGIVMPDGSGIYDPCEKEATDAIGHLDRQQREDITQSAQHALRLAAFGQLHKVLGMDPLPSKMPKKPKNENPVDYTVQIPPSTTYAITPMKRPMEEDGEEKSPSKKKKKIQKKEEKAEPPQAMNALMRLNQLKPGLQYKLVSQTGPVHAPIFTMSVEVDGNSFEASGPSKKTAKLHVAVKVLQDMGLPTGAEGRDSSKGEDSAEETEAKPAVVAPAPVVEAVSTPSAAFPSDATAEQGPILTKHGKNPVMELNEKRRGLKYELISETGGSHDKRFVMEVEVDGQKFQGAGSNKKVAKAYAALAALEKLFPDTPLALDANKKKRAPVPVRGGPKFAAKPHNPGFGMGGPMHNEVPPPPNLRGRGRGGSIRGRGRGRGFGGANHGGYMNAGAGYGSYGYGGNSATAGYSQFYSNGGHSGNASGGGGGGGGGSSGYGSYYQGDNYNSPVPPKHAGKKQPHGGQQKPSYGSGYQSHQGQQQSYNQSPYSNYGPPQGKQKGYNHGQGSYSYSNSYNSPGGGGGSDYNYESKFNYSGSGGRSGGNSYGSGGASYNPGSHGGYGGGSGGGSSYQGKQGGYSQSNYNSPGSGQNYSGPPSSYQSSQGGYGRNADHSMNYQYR
UniProt P80217: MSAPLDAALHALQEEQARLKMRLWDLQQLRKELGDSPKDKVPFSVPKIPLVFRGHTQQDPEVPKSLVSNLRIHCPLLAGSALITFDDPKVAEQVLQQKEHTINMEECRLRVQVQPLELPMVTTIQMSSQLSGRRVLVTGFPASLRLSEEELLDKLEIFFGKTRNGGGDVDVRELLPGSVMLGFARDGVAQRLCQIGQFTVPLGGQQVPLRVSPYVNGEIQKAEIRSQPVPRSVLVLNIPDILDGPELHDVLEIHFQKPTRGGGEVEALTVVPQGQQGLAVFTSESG
UniProt O75874, whole entry, looked up: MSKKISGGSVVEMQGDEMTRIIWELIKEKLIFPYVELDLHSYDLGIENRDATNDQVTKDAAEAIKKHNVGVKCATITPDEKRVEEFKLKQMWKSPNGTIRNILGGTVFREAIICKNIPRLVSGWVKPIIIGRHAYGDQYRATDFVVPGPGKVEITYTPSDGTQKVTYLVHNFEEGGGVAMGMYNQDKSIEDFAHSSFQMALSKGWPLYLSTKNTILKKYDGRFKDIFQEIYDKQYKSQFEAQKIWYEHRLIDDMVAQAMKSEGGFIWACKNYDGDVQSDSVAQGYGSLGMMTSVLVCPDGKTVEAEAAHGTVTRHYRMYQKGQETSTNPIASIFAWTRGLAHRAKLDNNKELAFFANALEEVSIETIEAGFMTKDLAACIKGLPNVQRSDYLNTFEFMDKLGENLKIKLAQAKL
UniProt Q9NXR8, whole entry, looked up: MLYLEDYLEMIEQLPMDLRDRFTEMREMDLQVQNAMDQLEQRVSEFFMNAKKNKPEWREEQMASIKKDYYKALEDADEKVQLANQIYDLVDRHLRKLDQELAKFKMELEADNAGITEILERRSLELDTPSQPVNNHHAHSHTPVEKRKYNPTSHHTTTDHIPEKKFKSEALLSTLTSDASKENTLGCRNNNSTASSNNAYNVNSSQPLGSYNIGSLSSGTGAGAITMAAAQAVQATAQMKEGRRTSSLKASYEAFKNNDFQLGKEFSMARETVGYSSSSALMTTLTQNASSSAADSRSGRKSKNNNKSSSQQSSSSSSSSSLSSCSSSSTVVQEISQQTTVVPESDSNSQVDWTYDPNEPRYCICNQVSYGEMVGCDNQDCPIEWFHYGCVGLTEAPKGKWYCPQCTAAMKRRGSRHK
UniProt Q13907: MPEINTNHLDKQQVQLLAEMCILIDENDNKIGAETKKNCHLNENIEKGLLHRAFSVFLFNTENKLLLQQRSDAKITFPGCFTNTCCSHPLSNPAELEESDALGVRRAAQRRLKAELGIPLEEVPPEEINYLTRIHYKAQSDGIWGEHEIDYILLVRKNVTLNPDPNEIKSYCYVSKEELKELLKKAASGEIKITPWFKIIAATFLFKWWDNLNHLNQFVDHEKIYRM
UniProt Q8N201, whole entry, looked up: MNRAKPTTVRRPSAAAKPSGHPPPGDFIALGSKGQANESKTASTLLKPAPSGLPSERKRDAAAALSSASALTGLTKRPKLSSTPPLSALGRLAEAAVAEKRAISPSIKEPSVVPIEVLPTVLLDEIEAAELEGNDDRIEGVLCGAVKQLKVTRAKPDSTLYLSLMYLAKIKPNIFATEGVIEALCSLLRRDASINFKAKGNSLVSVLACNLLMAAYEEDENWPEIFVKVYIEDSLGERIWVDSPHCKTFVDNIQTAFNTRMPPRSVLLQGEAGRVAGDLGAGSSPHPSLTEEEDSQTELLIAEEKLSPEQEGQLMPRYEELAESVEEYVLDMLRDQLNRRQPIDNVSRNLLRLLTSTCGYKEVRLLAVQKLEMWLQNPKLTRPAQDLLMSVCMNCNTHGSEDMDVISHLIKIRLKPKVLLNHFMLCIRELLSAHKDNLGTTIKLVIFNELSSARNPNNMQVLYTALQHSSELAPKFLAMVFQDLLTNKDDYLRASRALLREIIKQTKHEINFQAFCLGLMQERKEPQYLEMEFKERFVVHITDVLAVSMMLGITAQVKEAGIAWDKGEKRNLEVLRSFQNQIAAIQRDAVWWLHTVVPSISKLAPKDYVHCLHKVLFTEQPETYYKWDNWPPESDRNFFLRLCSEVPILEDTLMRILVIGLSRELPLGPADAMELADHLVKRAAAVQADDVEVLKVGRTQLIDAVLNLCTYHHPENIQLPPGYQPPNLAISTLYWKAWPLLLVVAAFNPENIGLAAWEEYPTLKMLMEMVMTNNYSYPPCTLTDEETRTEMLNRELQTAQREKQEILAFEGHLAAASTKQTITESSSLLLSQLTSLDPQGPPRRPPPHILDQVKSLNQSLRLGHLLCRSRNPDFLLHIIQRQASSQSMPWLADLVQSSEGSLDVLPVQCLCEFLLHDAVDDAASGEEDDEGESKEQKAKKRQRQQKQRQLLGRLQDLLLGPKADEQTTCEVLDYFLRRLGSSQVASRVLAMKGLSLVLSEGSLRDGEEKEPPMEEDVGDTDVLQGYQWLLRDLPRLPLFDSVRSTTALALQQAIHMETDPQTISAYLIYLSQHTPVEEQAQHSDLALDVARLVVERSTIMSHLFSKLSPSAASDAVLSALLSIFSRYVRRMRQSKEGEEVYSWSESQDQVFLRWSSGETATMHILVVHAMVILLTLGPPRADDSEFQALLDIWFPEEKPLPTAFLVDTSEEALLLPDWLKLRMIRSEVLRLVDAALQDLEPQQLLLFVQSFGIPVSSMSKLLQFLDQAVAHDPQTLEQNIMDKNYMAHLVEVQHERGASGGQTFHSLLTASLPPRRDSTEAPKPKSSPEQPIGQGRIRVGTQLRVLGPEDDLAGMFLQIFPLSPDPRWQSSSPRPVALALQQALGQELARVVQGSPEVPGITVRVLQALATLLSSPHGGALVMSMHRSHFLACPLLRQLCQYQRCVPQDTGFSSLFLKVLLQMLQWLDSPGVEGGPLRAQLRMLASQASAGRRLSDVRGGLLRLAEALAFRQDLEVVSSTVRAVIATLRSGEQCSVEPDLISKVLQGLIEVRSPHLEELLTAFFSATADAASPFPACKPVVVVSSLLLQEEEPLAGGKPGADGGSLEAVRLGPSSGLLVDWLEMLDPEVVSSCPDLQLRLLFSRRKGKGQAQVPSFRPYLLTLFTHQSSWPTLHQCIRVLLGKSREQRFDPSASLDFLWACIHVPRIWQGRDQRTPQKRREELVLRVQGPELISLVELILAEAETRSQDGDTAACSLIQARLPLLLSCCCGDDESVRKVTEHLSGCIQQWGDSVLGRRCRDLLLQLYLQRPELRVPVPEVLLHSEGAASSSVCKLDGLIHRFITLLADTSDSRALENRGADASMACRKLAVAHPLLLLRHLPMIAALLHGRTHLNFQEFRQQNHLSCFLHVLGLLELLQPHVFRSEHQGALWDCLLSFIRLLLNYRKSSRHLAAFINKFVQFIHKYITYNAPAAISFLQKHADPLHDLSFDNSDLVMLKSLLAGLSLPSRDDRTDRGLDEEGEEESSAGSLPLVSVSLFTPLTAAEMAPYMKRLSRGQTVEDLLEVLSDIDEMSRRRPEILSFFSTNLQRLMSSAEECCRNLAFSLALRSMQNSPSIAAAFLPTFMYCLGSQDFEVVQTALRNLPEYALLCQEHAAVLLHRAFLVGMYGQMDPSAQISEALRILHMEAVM
UniProt O43837: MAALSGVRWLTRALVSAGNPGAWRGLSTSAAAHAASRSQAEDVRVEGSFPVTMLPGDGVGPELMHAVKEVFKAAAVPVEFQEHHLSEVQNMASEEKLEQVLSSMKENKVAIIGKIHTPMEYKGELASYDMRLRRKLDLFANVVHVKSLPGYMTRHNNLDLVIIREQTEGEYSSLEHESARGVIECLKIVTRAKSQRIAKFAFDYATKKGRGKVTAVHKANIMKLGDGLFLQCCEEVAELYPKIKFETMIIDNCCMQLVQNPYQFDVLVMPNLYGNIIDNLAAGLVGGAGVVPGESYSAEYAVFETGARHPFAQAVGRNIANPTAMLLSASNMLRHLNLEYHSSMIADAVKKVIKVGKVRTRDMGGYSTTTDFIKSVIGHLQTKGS

Key:
Assay in all cases: log2 fold change, soluble protein after heating vs DMSO (PISA); higher = thermal stabilisation; K562 lysate, 10 uM; active = over 0.2 and 3.5 SD of the protein, either way, in both replicates (recomputed)
[1] = compound: C#Cc1cccc(Nc2ncnc3cc(OCCOC)c(OCCOC)cc23)c1 [erlotinib]
In short: (§1)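 The values are log-two fold changes in thermal stability compared with solvent controls and come from duplicates. They were obtained by TMTpro 16plex LC-MS/MS, with channel sums equalised, on the supernatant after 21,000xg for 90 min. That supernatant came from crude K562 extract at 1 mg/mL protein treated with 10 μM compound for 30 min, heated for 3 min across 48°C-58°C, pooled and brought to 0.5% NP-40 at 4°C.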

[2] = compound: C/C(=N\NC(=O)C1=CC(=CC=C1)S(=O)(=O)N2CCOCC2)/C3=C(C=CC(=C3)Cl)O
In short: as §1

[3] = compound: C1=CC(=CC=C1C2=NC3=C(N2)C=C(C=C3)C(=O)N)OC4=CC=C(C=C4)Cl
In short: as §1

[4] = compound: C1=CC2=C(C=CC(=C2)/C=C\3/C(=O)NC(=NCC4=CC=CS4)S3)N=C1
In short: as §1

[5] = compound: C1=CC2=NC=CN=C2C=C1/C=C/3\C(=O)NC(=O)S3
In short: as §1

[6] = compound: C1=CC=C(C=C1)C2=NC(=C(N2)C3=CC=NC=C3)C4=CC(=C(C=C4)Cl)O
In short: as §1

[7] = compound: C1=CC=C2C(=C1)C3=NNC4=CC=CC(=C43)C2=O
In short: as §1

[8] = compound: C1CCN(C1)C(=O)NC2=CC=CC(=C2)NC3=NC=C(C(=N3)NCCC4=CN=CN4)Br
In short: as §1

[9] = compound: C1CN(CCC1(CC2=CC=C(C=C2)Cl)N)C3=NC=NC4=C3C=CN4
In short: as §1

[10] = compound: C1COCCN1CCN2C3=CC=CC=C3N=C2NC(=O)C4=CC(=CC=C4)[N+](=O)[O-] [IRAK-1-4 Inhibitor I]
In short: as §1

[11] = compound: C=CC(=O)N1CCC[C@@H](n2nc(-c3ccc(Oc4ccccc4)cc3)c3c(N)ncnc32)C1 [ibrutinib]
In short: as §1

[12] = compound: CC(=O)c1cnc2ccc(-c3cc(Cl)c(O)c(Cl)c3)nc2c1N[C@H]1CC[C@H](CN(C)C)CC1
In short: as §1

[13] = compound: CC(C)(C)Cn1c(N)nc2ccc(-c3[nH]c(C(C)(C)C)nc3-c3ccc(F)cc3)nc21 [ralimetinib]
In short: as §1

[14] = compound: CC(C)(O)CC(=O)NCCn1ccc2ncnc(Nc3ccc(Oc4cccc(C(F)(F)F)c4)c(Cl)c3)c21
In short: as §1

[15] = compound: CC(C)C1=C2N=C(C=C(N2N=C1)NCC3=CC=CC=C3)NCCCCCCN
In short: as §1

[16] = compound: CC1=C(C(CC(=O)N1)C2=CC=C(C=C2)C(F)(F)F)C(=O)NC3=C(C=C4C(=C3)C=NN4)F
In short: as §1

[17] = compound: CC1=C(C2=C(C=C1)C(=O)C3=CC=CC=C3N2CCCN)C
In short: as §1

[18] = compound: CC1=C(C=C(C=C1)NC(=O)C2=CC(=CC=C2)C(C)(C)C#N)NC3=CC4=C(C=C3)N=CN(C4=O)C
In short: as §1

[19] = compound: CC1=C(C=C(C=C1)NC(=O)C2=CC(=CC=C2)N(C)C)NC(=O)C3=CC=C(C=C3)O
In short: as §1

[20] = compound: CC1=CC=C(C=C1)SC2=C3C=C(SC3=CN=C2)C(=O)N
In short: as §1

Measured: log2 fold change

IGF2BP2 (UniProt Q9Y6M1)
inactive: [1] 0.022 | [2] 0.049 | [3] -0.041 | [4] -0.032 | [5] 0.031 | [6] 0 | [7] -0.08 | [8] -0.023 | [9] 0.051 | [10] -0.022 | [11] 0.035 | [12] 0.007 | [13] 0.056 | [14] 0.035 | [15] 0.007 | [16] -0.008 | [17] -0.036 | [18] -0.075 | [19] 0.006 | [20] 0.056

IGF2BP1 (UniProt Q9NZI8)
inactive: [1] 0.032 | [2] 0.031 | [3] -0.017 | [4] 0.016 | [5] 0.012 | [6] 0.037 | [7] -0.011 | [8] 0.01 | [9] 0 | [10] -0.026 | [11] 0.026 | [12] -0.013 | [13] 0.052 | [14] 0.057 | [15] 0.047 | [16] -0.035 | [17] -0.02 | [18] -0.005 | [19] 0.049 | [20] 0.03

IBA57 (UniProt Q5T440)
inactive: [1] -0.049 | [2] -0.036 | [3] 0.02 | [4] -0.009 | [5] -0.015 | [6] -0.019 | [7] -0.002 | [8] 0.007 | [9] -0.029 | [10] -0.007 | [11] 0.035 | [12] 0.014 | [13] 0.012 | [14] 0.013 | [15] -0.024 | [16] -0.037 | [17] -0.001 | [18] -0.091 | [19] 0.014 | [20] 0.03

INTS13 (UniProt Q9NVM9)
inactive: [1] -0.001 | [2] 0.064 | [3] -0.026 | [4] 0.01 | [5] -0.035 | [6] 0.015 | [7] -0.014 | [8] 0.017 | [9] -0.004 | [10] -0.015 | [11] 0.01 | [12] -0.007 | [13] 0.034 | [14] -0.008 | [15] -0.01 | [16] -0.018 | [17] 0.006 | [18] -0.011 | [19] 0.028 | [20] 0.018

ICE2 (UniProt Q659A1)
inactive: [1] 0.045 | [2] 0.029 | [3] 0.052 | [4] -0.037 | [5] -0.084 | [6] 0.067 | [7] 0.03 | [8] 0.007 | [9] 0.038 | [10] 0.036 | [11] 0.024 | [12] 0.067 | [13] 0.022 | [14] -0.06 | [15] -0.084 | [16] 0.002 | [17] -0.085 | [18] -0.023 | [19] -0.042 | [20] -0.115

ILF3 (UniProt Q12906)
inactive: [1] -0.007 | [2] -0.264 | [3] 0.019 | [4] 0.091 | [5] 0.06 | [7] 0.123 | [8] 0.011 | [9] 0.143 | [11] -0.005 | [12] 0.059 | [15] -0.037 | [17] -0.101 | [18] 0.014 | [20] -0.083

IFI35 isoform 2 (UniProt P80217)
inactive: [1] -0.009 | [2] -0.009 | [3] 0.023 | [4] -0.017 | [5] -0.014 | [6] -0.022 | [7] 0.016 | [8] 0.007 | [9] 0.017 | [10] 0.026 | [11] 0.016 | [12] -0.003 | [13] 0.001 | [14] -0.046 | [15] -0.043 | [16] 0.02 | [17] -0.002 | [18] 0.015 | [19] -0.022 | [20] 0

IDH1 (UniProt O75874)
inactive: [1] 0.032 | [2] 0.045 | [3] 0.017 | [4] 0.046 | [5] 0.014 | [6] -0.019 | [7] 0.016 | [8] 0.005 | [9] 0.024 | [10] 0.005 | [11] 0.004 | [12] -0.002 | [13] 0.007 | [14] 0.005 | [15] 0.031 | [16] -0.006 | [17] 0.002 | [18] -0.019 | [19] 0.012 | [20] 0.035

ING3 (UniProt Q9NXR8)
inactive: [1] -0.038 | [2] -0.038 | [3] 0.066 | [4] 0.037 | [5] 0.051 | [6] -0.126 | [7] 0.087 | [8] -0.028 | [9] 0.015 | [10] -0.005 | [11] -0.013 | [12] -0.03 | [13] 0.029 | [14] -0.002 | [15] 0.071 | [16] -0.032 | [17] -0.047 | [18] 0.042 | [19] 0.015 | [20] 0.069

ICAM1 (UniProt P05362)
inactive: [1] -0.025 | [2] -0.016 | [3] 0.036 | [4] 0.002 | [5] -0.016 | [6] 0.018 | [7] -0.017 | [8] 0.03 | [9] 0.024 | [10] 0.026 | [11] -0.012 | [12] 0.032 | [13] -0.027 | [14] 0.002 | [15] -0.005 | [16] -0.004 | [17] 0.007 | [18] -0.014 | [19] -0.019 | [20] -0.012

HTATSF1 (UniProt O43719)
inactive: [1] -0.023 | [2] -0.017 | [3] 0.028 | [4] 0.014 | [5] -0.022 | [6] -0.014 | [7] -0.027 | [8] -0.015 | [9] 0.007 | [10] -0.016 | [11] 0.007 | [12] -0.022 | [13] 0.017 | [14] -0.034 | [15] -0.023 | [16] -0.01 | [17] 0.003 | [18] 0.004 | [19] 0.017 | [20] -0.022

INPP5F (UniProt Q9Y2H2)
inactive: [1] 0.045 | [2] 0.014 | [3] 0.196 | [4] 0.002 | [5] -0.198 | [6] 0.167 | [7] -0.166 | [8] -0.101 | [9] 0.297 | [10] 0.169 | [11] -0.089 | [12] -0.41 | [13] -0.122 | [14] -0.381 | [15] 0.005 | [16] -0.128 | [17] -0.201 | [19] -0.015 | [20] -0.29

IDI1 (UniProt Q13907)
inactive: [1] -0.003 | [2] -0.004 | [3] 0.006 | [4] 0.007 | [5] 0.007 | [6] 0.032 | [7] 0.017 | [8] -0.029 | [9] 0.024 | [10] 0.004 | [11] 0.02 | [12] -0.009 | [13] -0.012 | [14] -0.006 | [15] -0.003 | [16] -0.019 | [17] -0.022 | [18] 0.139 | [19] 0.013 | [20] -0.02

2 neighbouring entries from above, for reference:
ING3 (UniProt Q9NXR8)
inactive: [1] -0.038 | [2] -0.038 | [3] 0.066 | [4] 0.037 | [5] 0.051 | [6] -0.126 | [7] 0.087 | [8] -0.028 | [9] 0.015 | [10] -0.005 | [11] -0.013 | [12] -0.03 | [13] 0.029 | [14] -0.002 | [15] 0.071 | [16] -0.032 | [17] -0.047 | [18] 0.042 | [19] 0.015 | [20] 0.069

ICAM1 (UniProt P05362)
inactive: [1] -0.025 | [2] -0.016 | [3] 0.036 | [4] 0.002 | [5] -0.016 | [6] 0.018 | [7] -0.017 | [8] 0.03 | [9] 0.024 | [10] 0.026 | [11] -0.012 | [12] 0.032 | [13] -0.027 | [14] 0.002 | [15] -0.005 | [16] -0.004 | [17] 0.007 | [18] -0.014 | [19] -0.019 | [20] -0.012

Continued:

INTS1 (UniProt Q8N201)
inactive: [1] 0.016 | [2] 0.063 | [3] 0.013 | [4] -0.071 | [5] -0.017 | [6] 0.027 | [7] -0.097 | [8] -0.01 | [9] 0.025 | [10] 0.016 | [11] -0.103 | [12] 0.177 | [13] 0.053 | [14] -0.007 | [15] -0.052 | [16] -0.052 | [17] 0.038 | [18] -0.032 | [19] 0.035 | [20] 0.026

IDE, A0A3B3ISG5
inactive: [1] -0.013 | [2] -0.008 | [3] 0.015 | [4] -0.001 | [5] 0.001 | [6] 0.003 | [7] 0.001 | [8] 0.005 | [9] -0.009 | [10] -0.004 | [11] 0.021 | [12] -0.005 | [13] 0 | [14] -0.013 | [15] -0.027 | [16] -0.007 | [17] -0.026 | [18] -0.008 | [19] 0.008 | [20] 0.006

IFT172 (UniProt Q9UG01)
inactive: [1] 0.119 | [2] 0.082 | [3] 0.031 | [4] -0.065 | [6] -0.002 | [7] -0.161 | [10] 0.471 | [13] -0.123 | [14] 0.185 | [15] -0.305 | [16] 0.036 | [17] -0.083 | [19] 0.171

IDH3B (UniProt O43837)
inactive: [1] -0.031 | [2] -0.024 | [3] -0.026 | [4] -0.005 | [5] 0.007 | [6] -0.04 | [7] 0.18 | [8] -0.026 | [9] 0.019 | [10] 0.027 | [11] 0.007 | [12] 0.002 | [13] 0.024 | [14] 0.015 | [15] -0.006 | [16] 0.045 | [17] -0.009 | [18] -0.015 | [19] 0.018 | [20] 0.009
